According to publication PMC10681173:
These are yes or no findings as the source states them, for the method shown. In cells and extracts the contact can be indirect. Some results given as binding are weak or reduced against the parent protein; the word gives no strength. Where a sequence is shown, tags or fusion partners need not be part of it.

Columns and labels:
[1] = molecular target: CcmL BMC-P from Synechocystis sp. PCC 6803 fused to GFP10 or GFP11 (Synechocystis sp. PCC 6803) (UniProt P72759); assay: split reporter; tripartite GFP in E. coli BL21(DE3) cells; single vector, POI-10 and POI-11 on a bicistronic mRNA under T7p, GFP1-9 independent; IPTG 10 uM from the start, 37°C; Fmax relative to the RMM reference
[2] = molecular target: EutM from E. coli fused to GFP10 or GFP11 (EutM-10/11) (E. coli) (UniProt P0ABF4); assay: as above
[3] = molecular target: CsoS1A from H. neapolitanus with GFP10 or GFP11 at the N-terminus (H. neapolitanus) (UniProt P45689); assay: as above
[4] = molecular target: CcmK3 from Synechocystis sp. PCC 6803 fused to GFP10 or GFP11 (CcmK3-10/11) (Synechocystis sp. PCC 6803) (UniProt P73406); assay: split reporter; tripartite GFP in E. coli BL21(DE3) cells; single pET26b vector coding POI-GFP10, POI-GFP11 and GFP1-9 (three independent transcripts, T7p); IPTG 10 uM from the start, 37°C, about 16 h; Fmax from sigmoidal fits, relative to the RMM reference
[5] = molecular target: CcmK3 from Synechocystis sp. PCC 6803 fused to GFP10 or GFP11 (CcmK3-10/11) (Synechocystis sp. PCC 6803) (UniProt P73406); assay: split reporter; tripartite GFP in E. coli BL21(DE3) cells; single vector, all three partners on a single tricistronic mRNA; IPTG 10 uM from the start, 37°C
[6] = molecular target: CcmK3 from Synechocystis sp. PCC 6803 fused to GFP10 or GFP11 (CcmK3-10/11) (Synechocystis sp. PCC 6803) (UniProt P73406); assay: split reporter; tripartite GFP in E. coli BL21(DE3) cells; bicistronic POI-10/11 under constitutive promoters (J23103, J23105, J23106, J23109, J23110, J23115), GFP1-9 under T7p; IPTG at 0, 4, 6 or 8 hours of culture
[7] = molecular target: CcmK3 from Synechocystis sp. PCC 6803 fused to GFP10 or GFP11 (CcmK3-10/11) (Synechocystis sp. PCC 6803) (UniProt P73406); assay: split reporter; tripartite GFP in E. coli BL21(DE3) cells; single vector, POI-10 and POI-11 on a bicistronic mRNA under T7p, GFP1-9 independent; IPTG 10 uM from the start, 37°C; Fmax relative to the RMM reference
[8] = molecular target: T1, CcmK2 from Synechocystis sp. PCC 6803, GFP10/11-tagged (Synechocystis sp. PCC 6803) (UniProt P72761); assay: as above
T1 sequence: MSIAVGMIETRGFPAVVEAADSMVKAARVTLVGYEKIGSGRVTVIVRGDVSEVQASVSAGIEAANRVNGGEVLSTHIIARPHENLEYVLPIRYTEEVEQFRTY

B1: CcmL BMC-P from Synechocystis sp. PCC 6803 fused to GFP10 or GFP11 (protein, UniProt P72759 1-100)
chain: MQLAKVLGTVVSTSKTPNLTGVKLLLVQFLDTKGQPLERYEVAGDVVGAGLNEWVLVARGSAARKERGNGDRPLDAMVVGIIDTVNVASGSLYNKRDDGR
[1]
  binding: binds

B2: EutM from E. coli fused to GFP10 or GFP11 (EutM-10/11) (protein, UniProt P0ABF4 1-97)
chain: MEALGMIETRGLVALIEASDAMVKAARVKLVGVKQIGGGLCTAMVRGDVAACKAATDAGAAAAQRIGELVSVHVIPRPHGDLEEVFPIGLKGDSSNL
[2]
  binding: binds

B3: CsoS1A from H. neapolitanus with GFP10 or GFP11 at the N-terminus (protein, UniProt P45689 1-98)
chain: MADVTGIALGMIETRGLVPAIEAADAMTKAAEVRLVGRQFVGGGYVTVLVRGETGAVNAAVRAGADACERVGDGLVAAHIIARVHSEVENILPKAPQA
[3]
  binding: binds

B4: CcmK3 from Synechocystis sp. PCC 6803 fused to GFP10 or GFP11 (CcmK3-10/11) (protein, UniProt P73406 1-103)
chain: MPQAVGVIQTLGFPSVLAAADAMLKGGRVTLVYYDLAERGNFVVAIRGPVSEVNLSMKMGLAAVNESVMGGEIVSHYIVPNPPENVLAVLPVEYTEKVARFRT
[4]
  binding: no binding
[5]
  binding: no binding
[6]
  binding: no binding
[7]
  binding: no binding

B5: CcmK1 from Synechocystis sp. PCC 6803, GFP10/11-tagged (protein, UniProt P72760 1-111)
chain: MSIAVGMIETLGFPAVVEAADSMVKAARVTLVGYEKIGSGRVTVIVRGDVSEVQASVTAGIENIRRVNGGEVLSNHIIARPHENLEYVLPIRYTEAVEQFREIVNPSIIRR
[8]
  binding: binds
